Test results taken from patent US20240025858A1, “CANNABINOID DERIVATIVES AS […] ACTIVE COMPOUNDS AND METHOD OF PREPARATION THEREOF” (GW Research Limited, priority 2020, published 2024).

System: mouse model of generalised seizure
Assay: MEST (maximal electroshock seizure threshold) test in the mouse
Conditions: diazepam 2.5 mg/kg i.p., test 30 min post dose
Procedure: The efficacy of the cannabinoid derivative of 1 was tested in a mouse model of generalised seizure, the maximal electroshock seizure threshold (MEST) test.
The protocol according to Example 2 was followed, with the current lowered or raised in intervals of 5 mA instead of log scale intervals.

With `CN1C(=O)CN=C(c2ccccc2)c2cc(Cl)ccc21` [Diazepam, diazepam, reference compound] the “CC50 +/− SEM” value was 84.2 mA and the “CC50 +/− SEM” value (listed as diazepam) was 84.2 mA.
